One series concerns D. melanogaster. Description: D. melanogaster fecundity, feeding and body mass. The format is in vivo.
Another series deals with C. elegans. Description: C. elegans fecundity and feeding rate. The format is in vivo.

Structures are written as SMILES.

The compound `Oc1ccc(/C=C/c2cc(O)cc(O)c2)cc1` [Resveratrol, 3,5,4′-Trihydroxy-trans-stilbene] yielded an egg production in the series on D. melanogaster (10 μM resveratrol, Canton-S, 15% SY, control 59.9) of 69.8 eggs/5 days. Further, in the series with D. melanogaster (10 μM, 15% SY diet), the body weight result is “maintained normal weight”. In addition, in the series on D. melanogaster (crop-filling assay, yw females), the food uptake entry was “no decrease in food uptake”. The “Fecundity of adult hermaphrodites” value in the series on C. elegans (100 μM, controls 106) is listed as 99 eggs/5 worms/5 hours. Further, the Feeding rate in the series with C. elegans (Adult on live OP50, 100 μM, control 383±16.0) is 383±2.7 pumps/min; in the series on C. elegans (LA larval on live OP50, 100 μM, control 310±10.2), 315±9.8 pumps/min.

The record behind these values is patent US20060276393A1, “Novel compositions for preventing and treating neurodegenerative and blood coagulation disorders” (Sirtris Pharmaceuticals, Inc., priority 2005, published 2006).
